PubChem BioAssay AID1117269 | University of Michigan – 2014
Assay: 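Which kinase knockdowns increase BTR reporter light after TGF-beta stimulation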 (primary screen). Cell system: human A549 lung cancer and 1833 breast cancer (MDA-MB-231-derived) cell lines carrying a stable BTR luciferase reporter. Reagents: siRNA pool against human genes. Time to read-out: 72 h after transfection, then 1 h TGF-beta before the read. Treatment: TGF-beta 10 ng/mL added one hour before luciferin and read-out. Read-out: 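Live-cell BTR luciferase signal at 72 h after transfection and 1 h of TGF-beta at 10 ng/mL, fold versus scrambled siRNA, triplicate mean for each line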. Direction: fold over scrambled siRNA, A549 and fold over scrambled siRNA, 1833: higher = more reporter light, weaker TGF-beta receptor signalling. Rule for the call: 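Active if a hit in A549 or 1833; a line's hit exceeds an upper quartile-based cutoff on mean log fold values, applied per plate and across the whole screen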. Calls: active = hit in at least one line; inactive = hit in neither line.
This is one part, drawn at random, of 714 deposited reagents. 49 of all reagents (6.9%) were called active. 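Active means a hit in at least one line; per-line hit columns show which; some siRNA pools appear more than once.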 Not stated in the record: the amount of reagent.

How did the screen score PRKCA?
fold over scrambled siRNA, A549: 2.43; fold over scrambled siRNA, 1833: 8.86; hit in A549: not a hit in A549; hit in 1833: not a hit in 1833; activity call: inactive

For PKN1, what was measured?
fold over scrambled siRNA, A549: 1.05; fold over scrambled siRNA, 1833: 1.93; hit in A549: not a hit in A549; hit in 1833: not a hit in 1833; activity call: inactive

How did the screen score EFNA5?
fold over scrambled siRNA, A549: 1.52; fold over scrambled siRNA, 1833: 1.79; hit in A549: not a hit in A549; hit in 1833: not a hit in 1833; activity call: inactive

What did the screen give for CDK18?
fold over scrambled siRNA, A549: 1.96; fold over scrambled siRNA, 1833: 4.73; hit in A549: not a hit in A549; hit in 1833: not a hit in 1833; activity call: inactive

For AK2, what does the deposit list?
fold over scrambled siRNA, A549: 2.48; fold over scrambled siRNA, 1833: 8.48; hit in A549: not a hit in A549; hit in 1833: not a hit in 1833; activity call: inactive

Which result is listed for UCK2?
fold over scrambled siRNA, A549: 3.33; fold over scrambled siRNA, 1833: 6.2; hit in A549: not a hit in A549; hit in 1833: not a hit in 1833; activity call: inactive

What did the screen give for MAPKAPK5?
fold over scrambled siRNA, A549: 1.44; fold over scrambled siRNA, 1833: 0.852; hit in A549: not a hit in A549; hit in 1833: not a hit in 1833; activity call: inactive

What did the screen give for NAGK?
fold over scrambled siRNA, A549: 1.31; fold over scrambled siRNA, 1833: 1.13; hit in A549: not a hit in A549; hit in 1833: not a hit in 1833; activity call: inactive

With PRKCQ, what was measured?
fold over scrambled siRNA, A549: 1.21; fold over scrambled siRNA, 1833: 2.72; hit in A549: not a hit in A549; hit in 1833: not a hit in 1833; activity call: inactive

What did the screen give for IPMK?
fold over scrambled siRNA, A549: 1.86; fold over scrambled siRNA, 1833: 10; hit in A549: not a hit in A549; hit in 1833: not a hit in 1833; activity call: inactive

Part of the list above, reformatted.
gene symbol | fold over scrambled siRNA, A549 | fold over scrambled siRNA, 1833 | hit in A549 | hit in 1833 | activity call
NAGK | 1.31 | 1.13 | not a hit in A549 | not a hit in 1833 | inactive
PRKCQ | 1.21 | 2.72 | not a hit in A549 | not a hit in 1833 | inactive

Next results:
How did the screen score LRRK2?
fold over scrambled siRNA, A549: 2.14; fold over scrambled siRNA, 1833: 3.66; hit in A549: not a hit in A549; hit in 1833: not a hit in 1833; activity call: inactive

With GAK, how do the results read?
fold over scrambled siRNA, A549: 1.26; fold over scrambled siRNA, 1833: 5.49; hit in A549: not a hit in A549; hit in 1833: not a hit in 1833; activity call: inactive

For EFNB3, what was measured?
fold over scrambled siRNA, A549: 0.429; fold over scrambled siRNA, 1833: 3.33; hit in A549: not a hit in A549; hit in 1833: not a hit in 1833; activity call: inactive

Which result is listed for TLK2?
fold over scrambled siRNA, A549: 3.42; fold over scrambled siRNA, 1833: 2.26; hit in A549: not a hit in A549; hit in 1833: not a hit in 1833; activity call: inactive

With CDK11A, what does the deposit list?
fold over scrambled siRNA, A549: 1.02; fold over scrambled siRNA, 1833: 2.4; hit in A549: not a hit in A549; hit in 1833: not a hit in 1833; activity call: inactive

What did the screen give for RIOK3?
fold over scrambled siRNA, A549: 2.67; fold over scrambled siRNA, 1833: 5.19; hit in A549: not a hit in A549; hit in 1833: not a hit in 1833; activity call: inactive

With IP6K2, what does the deposit list?
fold over scrambled siRNA, A549: 1.71; fold over scrambled siRNA, 1833: 1.9; hit in A549: not a hit in A549; hit in 1833: not a hit in 1833; activity call: inactive

How did the screen score CAMK2G?
fold over scrambled siRNA, A549: 1.75; fold over scrambled siRNA, 1833: 2.6; hit in A549: not a hit in A549; hit in 1833: not a hit in 1833; activity call: inactive

What did the screen give for IKBKB?
fold over scrambled siRNA, A549: 0.667; fold over scrambled siRNA, 1833: 2.89; hit in A549: not a hit in A549; hit in 1833: not a hit in 1833; activity call: inactive

What did the screen give for PTK6?
fold over scrambled siRNA, A549: 1.11; fold over scrambled siRNA, 1833: 3.07; hit in A549: not a hit in A549; hit in 1833: not a hit in 1833; activity call: inactive

What did the screen give for PRKD3?
fold over scrambled siRNA, A549: 3.48; fold over scrambled siRNA, 1833: 6.71; hit in A549: not a hit in A549; hit in 1833: not a hit in 1833; activity call: inactive
